The values are deposited in ChEMBL (CHEMBL3988442, “University of Dundee, Small-Polar-MMV Screening Library” (2021)).

Chains of the proteins cited; added tags and fusions are not shown.
UniProt E9BF75, entry or part of it: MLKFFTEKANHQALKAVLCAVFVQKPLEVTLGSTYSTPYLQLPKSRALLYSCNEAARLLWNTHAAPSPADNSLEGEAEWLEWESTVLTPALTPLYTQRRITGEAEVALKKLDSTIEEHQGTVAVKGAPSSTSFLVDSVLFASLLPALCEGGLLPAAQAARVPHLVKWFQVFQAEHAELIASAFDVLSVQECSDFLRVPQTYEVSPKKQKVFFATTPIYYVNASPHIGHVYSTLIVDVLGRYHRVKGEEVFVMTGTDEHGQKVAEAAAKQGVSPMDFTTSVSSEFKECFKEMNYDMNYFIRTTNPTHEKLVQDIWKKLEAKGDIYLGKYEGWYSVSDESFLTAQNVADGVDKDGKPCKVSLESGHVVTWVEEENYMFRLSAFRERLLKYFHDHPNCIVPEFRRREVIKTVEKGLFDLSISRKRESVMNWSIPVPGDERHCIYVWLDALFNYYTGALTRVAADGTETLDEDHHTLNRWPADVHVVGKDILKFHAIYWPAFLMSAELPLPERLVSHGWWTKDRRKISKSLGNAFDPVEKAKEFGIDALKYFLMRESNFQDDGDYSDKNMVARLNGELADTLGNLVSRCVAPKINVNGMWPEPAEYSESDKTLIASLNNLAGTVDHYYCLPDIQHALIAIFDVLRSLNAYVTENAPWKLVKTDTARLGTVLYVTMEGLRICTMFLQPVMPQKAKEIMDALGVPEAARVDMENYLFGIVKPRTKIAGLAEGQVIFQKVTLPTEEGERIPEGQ

Results are percentages, as filed.
How 0% and 100% were set is not recorded. Most values in the screen are low, and negative values occur.
This is an unselected part of the compounds tested.
A dash means the value is not listed here; it may have been measured.

Mtb heat-shock: 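Assay on Mycobacterium tuberculosis, filed only as a heat shock assay from Cornell; the read-out is not stated. The concentration is filed as 10 mM, unlikely as a test dose, so the dose is not known. Direction is inferred from retests: higher values go with stronger inhibition. Size under these conditions: about 69,000 compounds, about 930 of them at 50% or above in at least one test.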
LdMetRS: 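Primary screen of methionyl-tRNA synthetase; the read-out is not stated. Target: Methionyl-tRNA synthetase (putative), Leishmania donovani (UniProt E9BF75). The test concentration is not given. Values are per cent inhibition. Of about 68,000 compounds tested this way, about 24 (0.035%) reached 50% or more in at least one test.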
Mtb growth Cornell: 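Whole-cell assay for inhibitors of Mycobacterium tuberculosis growth, labelled Cornell in the record; the read-out is not stated. The concentration is filed as 10 mM, unlikely as a test dose, so the dose is not known. Higher means stronger inhibition (inferred from two other growth screens of the library). Size under these conditions: about 53,000 compounds, about 900 of them at 50% or above in at least one test.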

compound,Mtb heat-shock,LdMetRS,Mtb growth Cornell
CN(Cc1cc(F)ccc1C#N)CC(C)(CO)CO,3.055,10.43,-
COCCN1CCCn2c(nc(CNC(=O)COC)cc2=O)C1.O=C(O)C(F)(F)F,37.74,-,-4.293
Cn1cccc1C(=O)N1CCC2(CCCN2c2ncccn2)CC1.O=C(O)C(F)(F)F,-9.613,-,10.15
COc1ccc([C@@H]2CN(C(=O)CCCc3cn[nH]c3)C[C@H]2N(C)C)cc1,-0.8845,19.76,13.44
COCC1CCN(CCOc2ccc(C#N)cc2OC)CC1,3.786,11.52,8.362
O=C(NCc1nc[nH]n1)c1cc(COc2ccccc2F)[nH]n1,-108.7,6.344,-
COc1cc(CCC(=O)NC(C)C)ccc1OCC(F)(F)F,-8.916,10.29,-10.86
O=C1CC2(CCN(Cc3ccc(C(F)(F)F)nc3)CC2)CN1,-9.306,5.923,-13.21
CCCOc1cccc(OCc2ccon2)c1,7.902,5.322,-
CCN1C[C@H]2CCN(C(=O)C3CCCO3)CC[C@H]2S1(=O)=O (stereo partly drawn),-,7.609,-
O[C@@]1(c2ccccn2)CC[C@H]2CN(Cc3ccccn3)C[C@H]21,-,12.99,-
COc1ccc(C(=O)CCC(=O)NCc2ncc(C)s2)cc1F,13.19,12.14,21.22
O=C(C1CCOCC1)N1C[C@H]2CCC[C@@]2(COc2cccnc2)C1,-,12.64,-
O=C([C@H]1COC[C@H]2CN(CC3CC3)C[C@H]21)N1CCOCC1,-,2.536,-
O=C(c1ccc(-n2cnnc2)cc1Cl)N1CCCC2(CCNC2)C1 (stereo not drawn),6.831,18.54,9.736
CN(C)c1ncc2c(n1)C1(CCN(Cc3cccnc3)C1)COC2 (stereo not drawn),-9.851,11.28,15.74
[H][C@@]12CCC(=O)N(c3ccccc3)[C@]1([H])CCN2C(=O)c1ccc(C)o1,-178.7,-,-
CC(C)c1ncc2c(n1)CN(Cc1cccc(C(N)=O)c1)CC2,0.3433,20.11,-
CC1=N[C@@]2(CC[C@@H]3CN(Cc4ccccc4)C[C@@H]32)C(=O)N1CC1CC1,-,18.27,-
CCCc1nc(C)cc(N2CCC3(CCC(=O)N(C4CC4)C3)CC2)n1,8.849,11.39,-
CCOc1cc(CNCc2ncc[nH]2)c(Cl)cc1OC(C)C,12.73,16.45,-19.53
CCOCC(=O)N1Cc2nccn2CC(CN2CCCC2)C1 (stereo not drawn),-,17.46,-
Clc1nc2ccccn2c1CNCC1CN(C2CC2)CCO1 (stereo not drawn),7.338,10.42,-12.21
[H][C@@]12COC[C@]1(CNS(C)(=O)=O)CN(C(=O)c1ccccc1)C2,-2.939,-,1.932
CS(=O)(=O)N1CCOC2(CCCN(c3ncc(F)cn3)C2)C1 (stereo not drawn),-0.7159,21.3,2.551
CC(=O)N1CCCC2(C1)CN(C(=O)c1ccncc1)CCO2 (stereo not drawn),-1.478,-3.98,12.51
CN(C)CC1CCN(Cc2nccn2CC(F)(F)F)CC1,20.3,4.514,-0.9906
NC1(c2nc(C(F)(F)F)cc(=O)[nH]2)CCCCC1,-,14.8,-
COc1ccc(-n2ccc(C(=O)NCCN3CCCCCC3)n2)cc1,-4.693,24.22,-18.05
Cc1nccc(NCc2cncc3c2CCN(S(C)(=O)=O)C3)n1.Cl,1.588,-,17.03
NC(=O)N1CCC2(CCN(Cc3ccccn3)C2=O)C1.O=C(O)C(F)(F)F (stereo not drawn),-24.52,-,-
CCOC(=O)C1CCCCN1Cc1c[nH]nc1-c1ccc(F)cc1F (stereo not drawn),-3.876,3.922,4.722
Cc1nc(CN2C(=O)CC[C@@H]3[C@H]2CCN3C2CCOCC2)cs1,-,-2.454,-
[H][C@@]12CN(CC)C[C@]1(C(=O)NCC1CC1)CCCN2c1ncccn1,10.72,-,6.725
CC(NC(=O)NC1CCN(Cc2ccccn2)CC1)c1nncn1C (stereo not drawn),3.641,7.521,1.631
Cc1nn(Cn2ccc(C(=O)N3CCC(C)CC3)n2)c(C)c1Cl,7.158,10.53,17.87
O=C(c1cc(C2CC2)[nH]n1)N1CCN(Cc2ccsc2)CC1,5.607,7.937,6.464
CN(C)C[C@H]1OC[C@@H]2CCN(S(=O)(=O)c3ccccc3)C[C@@H]21,-,2.146,-
CN1CCN(c2cnn(Cc3ccc(S(C)(=O)=O)cc3)c(=O)c2)CC1,-12.83,11.34,-
CNc1nc(C2CCCN(C(=O)CNC(C)=O)C2)nc2c1CN(C)CC2 (stereo not drawn),-27.17,-1.935,-19.34
CCS(=O)(=O)N1CCC2(CC1)CC[C@@]1(C(=O)N(C)C)CN(C(C)=O)C[C@@H]21,-,1.045,-
CCc1ccc(OCC(O)CN2CCN(CCO)CC2)cc1 (stereo not drawn),-,10.5,-
CCCSc1ncc(CN2CCN(C)C(=O)C2C)cn1 (stereo not drawn),-0.25,4.27,-4.349
COc1ccnc(CNc2cc(C3CC3)ncn2)c1,-11.55,15.57,13.78
CCCN1CCC(N(Cc2ncc(C)o2)C(C)=O)C1 (stereo not drawn),7.281,10.04,7.002
OC(COCc1cccs1)Cn1cc(-n2cccc2)cn1 (stereo not drawn),0.3396,10.31,40.92
Cc1ccc2c(c1)C(NC(=O)N(C)C)CC21CCN(C)CC1.O=C(O)C(F)(F)F (stereo not drawn),-15.35,-,14.36
Cc1nc(CN2CCCN(C(=O)C3(C#N)CCCCC3)CC2)cs1,9.211,7.981,-6.077
O=C(O)C(F)(F)F.O=C(O)C(F)(F)F.[H][C@@]12COC[C@]1(COc1cccnc1)CN(C1CCOCC1)C2,25.79,-,-0.9621
Cc1nnc(NC(=O)NCc2ccc(F)cc2)s1,-6.161,27.27,-
COc1ccc2c(c1)C(C(=O)N(C)CCc1scnc1C)CC(=O)N2 (stereo not drawn),-6.317,5.651,3.576
CN(C)C(=O)c1cn[nH]c1C1(C)CCN(c2ncccn2)CC1,-3.572,5.312,-3.913
COC1CC2(CCN(Cc3ccc4c(c3)OCO4)CC2)C1,0.2395,13.8,-4.852
COCCC1COC2(CCN(C(=O)c3cccnc3)CC2)C1 (stereo not drawn),-,9.453,-
O=C(O)C(F)(F)F.O=C(O)C(F)(F)F.O=C1NC2(CCN(Cc3ccc(F)cc3)CC2)CC1c1ccncc1 (stereo not drawn),-11.93,-,-3.607
CC(C)Oc1ccccc1CNC(=O)c1[nH]ncc1Br,11.92,12.32,43.35
O=C(NCc1ccccc1)N1C[C@H]2C[C@H](C(=O)N3CCCC3)[C@@H](C1)O2,-,18.98,-

The first 3 entries again:

| compound | Mtb heat-shock | LdMetRS | Mtb growth Cornell |
|---|---|---|---|
| `CN(Cc1cc(F)ccc1C#N)CC(C)(CO)CO` | 3.055 | 10.43 | - |
| `COCCN1CCCn2c(nc(CNC(=O)COC)cc2=O)C1.O=C(O)C(F)(F)F` | 37.74 | - | -4.293 |
| `Cn1cccc1C(=O)N1CCC2(CCCN2c2ncccn2)CC1.O=C(O)C(F)(F)F` | -9.613 | - | 10.15 |